## Primary screen of a compound library

Data taken from ChEMBL document CHEMBL3988442, “University of Dundee, Small-Polar-MMV Screening Library” (2021).

The filed quantity is “Percent Effect” (%).
How 0% and 100% were set is not recorded. Most values in the screen are low, and negative values occur.
Compounds were drawn at random from those tested, without regard to their results.
A dash means the value is not listed here; it may have been measured.

Mtb growth Cornell: 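Whole-cell assay for inhibitors of Mycobacterium tuberculosis growth, labelled Cornell in the record; the read-out is not stated. The concentration is filed as 10 mM, unlikely as a test dose, so the dose is not known. The record gives no direction; compounds strong in two other growth screens of this library score well above the rest, so higher reads as stronger inhibition. About 53,000 compounds were tested under these conditions; 1.7% (about 900) showed 50% or more at least once.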
Mtb heat-shock: 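Assay on Mycobacterium tuberculosis, filed only as a heat shock assay from Cornell; the read-out is not stated. The concentration is filed as 10 mM, unlikely as a test dose, so the dose is not known. Higher reads as stronger inhibition (inferred: compounds with an IC50 in retests scored well above the rest). Of about 69,000 compounds tested this way, about 930 (1.4%) reached 50% or more in at least one test.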

CCOc1ccc(CNC(C)c2cccc(S(=O)(=O)NC)c2)cc1 (stereo unspecified) gave Mtb growth Cornell: -17.29%; Mtb heat-shock: -11.39%. COc1ccc(C(O)CNC(=O)NCCc2csc(C)n2)cc1 (stereo unspecified) gave Mtb heat-shock: -13.62%. Result for O=C1C(CS(=O)(=O)Nc2ccc(Cl)cc2)=NC(=O)n2cccc21 was Mtb growth Cornell: 11.65%; Mtb heat-shock: 0.8023%. COc1cc(Cl)ccc1CNC(=O)N(C)C(C)CS(C)(=O)=O (stereo unspecified) read Mtb heat-shock: -2.342%. For CC1(C)OC(=O)N(CCOc2ccc(F)cc2)C1=O the result was Mtb growth Cornell: 15.77%; Mtb heat-shock: -13.99%. COc1ccccc1OC1CCN(Cc2cnc(N(C)C)nc2)CC1 read Mtb growth Cornell: -17.68%; Mtb heat-shock: -26.05%. CC(C)(C)c1nccc(N2CCCCC2CNS(C)(=O)=O)n1 (stereo unspecified) read Mtb growth Cornell: -6.091%; Mtb heat-shock: -8.394%.

With CCOC(=O)CNC(=O)N1CCc2onc(-c3ccc(Cl)cc3)c2C1 the screen gave Mtb growth Cornell: 7.455%; Mtb heat-shock: 3.075%. For CCc1cc(C(=O)NCC2CCN(Cc3cccc(C)n3)C2)on1 (stereo unspecified) the result was Mtb growth Cornell: 14.14%; Mtb heat-shock: 17.68%. With CCCc1nc(C(=O)NCCN2CCC(c3ccccc3C)C2)cs1 (stereo unspecified) the screen gave Mtb growth Cornell: 38.72%; Mtb heat-shock: 5.145%. With CCOC(=O)CN1CCC2(CC1)CC(NC(=O)c1ccccn1)CO2 (stereo unspecified) the screen gave Mtb growth Cornell: 2.594%; Mtb heat-shock: -7.571%. O=C(O)C(F)(F)F.[H][C@@]12COC[C@]1(c1nnc(C)o1)CN(Cc1cccs1)C2 read Mtb growth Cornell: -25.63%; Mtb heat-shock: -15.07%. With CN(C)c1nc(CNC(=O)N[C@H](CO)c2ccccc2)cs1 the screen gave Mtb growth Cornell: -10.27%; Mtb heat-shock: -11.33%. Result for CNC(=O)C1(C)CCCN1Cc1cnn(C)c1C (stereo unspecified) was Mtb growth Cornell: -31.86%; Mtb heat-shock: 2.48%.

Result for CC(C)CN(CCc1ccccc1)Cc1nc2c(cnn2C)c(=O)[nH]1 was Mtb growth Cornell: 5.625%; Mtb heat-shock: -0.6887%. With O=C(c1ccc2sccc2c1)N1CCC(C(=O)O)(n2ccnc2)CC1 the screen gave Mtb growth Cornell: -23%; Mtb heat-shock: -19.93%. For Cc1cc(C)c2c(NCCC34CCCN3CCC4)ncnc2n1 the result was Mtb growth Cornell: 1.563%; Mtb heat-shock: 15.07%. Cn1c(NCc2ccc(C(N)=O)cc2)nc2cc(Cl)ccc21 gave Mtb growth Cornell: 60.39%; Mtb heat-shock: 7.828%. For CCc1nc(NCCCOC)c2c(n1)c(C)nn2C the result was Mtb heat-shock: 14.58%. With CCN(CC)Cc1ccc(C(=O)N2CCCCC2Cn2cccn2)o1 (stereo unspecified) the screen gave Mtb growth Cornell: -0.9476%; Mtb heat-shock: 0.9346%. Result for Cc1nn(CCC#N)c(C)c1CCC(=O)N(C(C)C)C1CC1 was Mtb growth Cornell: 17.15%; Mtb heat-shock: -1.894%.

Result for COc1ccc(OC)c(C(C)NS(=O)(=O)c2cn(C)nc2C)c1 (stereo unspecified) was Mtb growth Cornell: 11.08%; Mtb heat-shock: 8.539%. Result for O=C(Cc1ccccc1)N1CCCC2(COCCN(CC3CC3)C2)C1.O=C(O)C(F)(F)F (stereo unspecified) was Mtb heat-shock: -3.666%. For Cc1cc(C(=O)N(CC(F)(F)F)C2CCOCC2)c(C)o1 the result was Mtb growth Cornell: 51.1%; Mtb heat-shock: 8.387%. For CC(Oc1cccc(Cl)c1)C(=O)Nc1cnn(CC(=O)NC2CC2)c1 (stereo unspecified) the result was Mtb growth Cornell: 12.31%; Mtb heat-shock: 5.276%. Result for CNc1oc(-c2ccc(OC)c(S(=O)(=O)N(C)C)c2)nc1C#N was Mtb growth Cornell: 25.87%; Mtb heat-shock: 4.952%. For COC(=O)N1CCC2(CC1)CC(c1ccccc1)CN(C)C2 (stereo unspecified) the result was Mtb heat-shock: 21.58%. With O=C(O)C(F)(F)F.O=C(O)C(F)(F)F.O=C1COC2(CCN(Cc3cccnc3)CC2)CN1 the screen gave Mtb growth Cornell: -0.2355%; Mtb heat-shock: -2.798%.

For Cc1cccc(-n2nc(CC(C)C)nc2CCCC(N)=O)c1 the result was Mtb growth Cornell: 20.09%; Mtb heat-shock: -18.11%. Result for CCCc1nc(NCCOC)c2c(n1)c(C)nn2CC was Mtb heat-shock: -17.61%. [H][C@]12CC[C@](O)(CC1)C(CN1CCOCC1)N2C(=O)c1ccco1 (stereo partly specified) read Mtb growth Cornell: -4.721%; Mtb heat-shock: 30.59%. Cc1cccc(CC2COCCN(Cc3nccn3C)C2)n1 (stereo unspecified) gave Mtb heat-shock: -13.2%. CCC1(O)CCCN(c2ncnc3c2c(C)nn3C)C1 (stereo unspecified) gave Mtb growth Cornell: 4.621%; Mtb heat-shock: 10.34%. Result for COc1cccc2c1OCC(C(=O)N1Cc3ccccc3C1)C2 (stereo unspecified) was Mtb growth Cornell: 19.56%; Mtb heat-shock: 5.864%.

Repeated from the top, 3 entries:

SMILES,Mtb growth Cornell,Mtb heat-shock
CCOc1ccc(CNC(C)c2cccc(S(=O)(=O)NC)c2)cc1 (stereo unspecified),-17.29%,-11.39%
COc1ccc(C(O)CNC(=O)NCCc2csc(C)n2)cc1 (stereo unspecified),-,-13.62%
O=C1C(CS(=O)(=O)Nc2ccc(Cl)cc2)=NC(=O)n2cccc21,11.65%,0.8023%